Reference: the supplement of paper PMC6078165
Values are relative to the signal before dosing, not to a vehicle control; the signal also falls without drug.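 The tumor cells are basal-like or mesenchymal-like triple-negative breast cancer lines cultured without fibroblasts. Reduced red signal indicates lost mitochondrial integrity, serving as a proxy for apoptotic death.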

How the values were obtained:
Test in all cases: relative JC-1 red fluorescence (viability) vs pre-drug, monoculture (fraction); higher = more viable cancer cells
Conditions in all cases: coculture fibroblast: none (monoculture)
[1] = system: BT20
Experimental: (§1)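 JC-1 labelled TNBC cells grown in monoculture (density kept equal with unlabelled cancer cells) in 384-well plates in FluoroBrite medium, treated with one of 42 anticancer drugs at 0.1, 1, 10 or 100 uM. JC-1 red fluorescence (mitochondrial integrity, surrogate of apoptotic death) was read by plate reader every 8 h for 72 h. Values are normalised to each well's pre-drug value, with background from alamethicin. The stock of one drug was tenfold lower, so its dose labels may be too high. Monoculture values are repeated alongside each fibroblast plate and are averaged here.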

[2] = system: HCC1143
Experimental: as §1

[3] = system: Hs578T
Experimental: as §1

[4] = system: MDAMB468
Experimental: as §1

CC/C(=C(\c1ccccc1)c1ccc(OCCN(C)C)cc1)c1ccccc1 [Tamoxifen]
relative JC-1 red fluorescence
Conditions | 8 h | 16 h | 24 h | 32 h | 40 h | 48 h | 56 h | 64 h | 72 h
[1], 0.1 µM | 0.955 | 0.878 | 0.7958 | 0.7338 | 0.6958 | 0.6779 | 0.661 | 0.64073 | 0.6331
[1], 1 µM | 0.82 | 0.901 | 0.773 | 0.795 | 0.754 | 0.751 | 0.763 | 0.73 | 0.628
[1], 10 µM | 0.9521 | 0.9573 | 0.9139 | 0.923 | 0.926 | 0.938 | 0.941 | 0.934 | 0.929
[2], 0.1 µM | 0.8882 | 0.8064 | 0.7432 | 0.6863 | 0.6476 | 0.6225 | 0.5978 | 0.59 | 0.5782
[2], 1 µM | 0.8899 | 0.806 | 0.732 | 0.684 | 0.642 | 0.602 | 0.569 | 0.555 | 0.534
[2], 10 µM | 0.955 | 0.9223 | 0.875 | 0.8141 | 0.74888 | 0.6821 | 0.6442 | 0.598 | 0.561
[3], 0.1 µM | 0.8393 | 0.741 | 0.6981 | 0.668 | 0.627 | 0.614 | 0.586 | 0.592 | 0.588
[3], 1 µM | 0.846 | 0.76 | 0.701 | 0.626 | 0.571 | 0.541 | 0.509 | 0.492 | 0.47
[3], 10 µM | 0.9272 | 0.945 | 0.882 | 0.932 | 0.947 | 0.879 | 0.967 | 0.946 | 0.945
[4], 0.1 µM | 0.894 | 0.842 | 0.7411 | 0.6679 | 0.6142 | 0.593 | 0.5587 | 0.528 | 0.517
[4], 1 µM | 0.922 | 0.8812 | 0.851 | 0.801 | 0.7809 | 0.7633 | 0.7297 | 0.6946 | 0.6889
[4], 10 µM | 0.901 | 0.923 | 0.771 | 0.775 | 0.767 | 0.888 | 0.854 | 0.792 | 0.616

CC[C@]1(O)C[C@H]2CN(CCc3c([nH]c4ccccc34)[C@@](C(=O)OC)(c3cc4c(cc3OC)N(C=O)[C@H]3[C@@](O)(C(=O)OC)[C@H](OC(C)=O)[C@]5(CC)C=CCN6CC[C@]43[C@@H]65)C2)C1 [Vincristine]
relative JC-1 red fluorescence
Conditions | 8 h | 16 h | 24 h | 32 h | 40 h | 48 h | 56 h | 64 h | 72 h
[1], 0.1 µM | 0.953 | 0.8859 | 0.88303 | 0.8135 | 0.7869 | 0.7832 | 0.7652 | 0.768 | 0.7643
[1], 1 µM | 0.9248 | 0.866 | 0.77 | 0.706 | 0.654 | 0.632 | 0.5852 | 0.5461 | 0.523
[1], 10 µM | 0.964 | 0.8579 | 0.8241 | 0.753 | 0.7032 | 0.665 | 0.62 | 0.596 | 0.572
[1], 100 µM | 0.9646 | 0.948 | 0.91 | 0.86 | 0.832 | 0.81 | 0.783 | 0.766 | 0.7498
[2], 0.1 µM | 0.81783 | 0.755 | 0.693 | 0.6 | 0.552 | 0.546 | 0.519 | 0.519 | 0.51
[2], 1 µM | 0.88 | 0.796 | 0.736 | 0.6735 | 0.6291 | 0.602 | 0.576 | 0.552 | 0.543
[2], 10 µM | 0.9082 | 0.836 | 0.8 | 0.747 | 0.704 | 0.675 | 0.644 | 0.627 | 0.61
[2], 100 µM | 0.953 | 0.934 | 0.931 | 0.853 | 0.888 | 0.856 | 0.849 | 0.819 | 0.806
[3], 0.1 µM | 0.781 | 0.662 | 0.634 | 0.558 | 0.508 | 0.487 | 0.466 | 0.466 | 0.465
[3], 1 µM | 0.85 | 0.732 | 0.666 | 0.594 | 0.565 | 0.545 | 0.52 | 0.535 | 0.537
[3], 10 µM | 0.866 | 0.732 | 0.728 | 0.656 | 0.63 | 0.612 | 0.596 | 0.597 | 0.592
[3], 100 µM | 0.8863 | 0.8404 | 0.772 | 0.73 | 0.676 | 0.633 | 0.584 | 0.558 | 0.541
[4], 0.1 µM | 0.8201 | 0.8034 | 0.814 | 0.7936 | 0.7677 | 0.7783 | 0.7757 | 0.7695 | 0.7653
[4], 1 µM | 0.91426 | 0.871 | 0.849 | 0.792 | 0.77 | 0.754 | 0.729 | 0.702 | 0.692
[4], 10 µM | 0.9009 | 0.882 | 0.887 | 0.826 | 0.794 | 0.782 | 0.752 | 0.727 | 0.71
[4], 100 µM | 0.933 | 0.901 | 0.913 | 0.89 | 0.884 | 0.887 | 0.856 | 0.825 | 0.816

CCC1=C[C@@H]2CN(C1)Cc1c([nH]c3ccccc13)[C@@](C(=O)OC)(c1cc3c(cc1OC)N(C)[C@H]1[C@@](O)(C(=O)OC)[C@H](OC(C)=O)[C@]4(CC)C=CCN5CC[C@]31[C@@H]54)C2 [Vinorelbine]
relative JC-1 red fluorescence
Conditions | 8 h | 16 h | 24 h | 32 h | 40 h | 48 h | 56 h | 64 h | 72 h
[1], 0.1 µM | 0.955 | 0.911 | 0.795 | 0.725 | 0.685 | 0.639 | 0.599 | 0.5839 | 0.5564
[1], 1 µM | 0.9555 | 0.9136 | 0.832 | 0.763 | 0.714 | 0.696 | 0.669 | 0.646 | 0.62
[1], 10 µM | 0.9466 | 0.917 | 0.865 | 0.813 | 0.771 | 0.747 | 0.711 | 0.683 | 0.646
[1], 100 µM | 0.504 | 0.309 | 0.243 | 0.16 | 0.124 | 0.104 | 0.0774 | 0.0606 | 0.0459
[2], 0.1 µM | 0.8908 | 0.798 | 0.7128 | 0.6505 | 0.5962 | 0.555 | 0.526 | 0.5147 | 0.5
[2], 1 µM | 0.912 | 0.853 | 0.808 | 0.765 | 0.717 | 0.678 | 0.663 | 0.65 | 0.634
[2], 10 µM | 0.945 | 0.888 | 0.83 | 0.773 | 0.707 | 0.6594 | 0.6257 | 0.5985 | 0.574
[2], 100 µM | 0.6 | 0.423 | 0.315 | 0.259 | 0.221 | 0.194 | 0.169 | 0.147 | 0.126
[3], 0.1 µM | 0.825 | 0.704 | 0.606 | 0.541 | 0.5 | 0.482 | 0.454 | 0.445 | 0.44
[3], 1 µM | 0.812 | 0.6968 | 0.626 | 0.543 | 0.478 | 0.437 | 0.405 | 0.393 | 0.38
[3], 10 µM | 0.8489 | 0.7647 | 0.646 | 0.583 | 0.5042 | 0.482 | 0.424 | 0.373 | 0.334
[3], 100 µM | 0.393 | 0.212 | 0.166 | 0.0962 | 0.0666 | 0.0427 | 0.0206 | 0.0227 | 0.00336
[4], 0.1 µM | 0.918 | 0.888 | 0.798 | 0.745 | 0.7 | 0.662 | 0.636 | 0.607 | 0.592
[4], 1 µM | 0.9461 | 0.906 | 0.877 | 0.816 | 0.787 | 0.771 | 0.7267 | 0.6928 | 0.6812
[4], 10 µM | 0.9165 | 0.878 | 0.838 | 0.7682 | 0.729 | 0.70528 | 0.6728 | 0.638 | 0.618
[4], 100 µM | 0.452 | 0.255 | 0.176 | 0.122 | 0.0887 | 0.0703 | 0.0423 | 0.0247 | 0.0192
